Laboratory results from the supplement of paper PMC10849652.
Some of the results follow.

The chains behind the UniProt entries cited, without tags or fusion partners. Where a name states a change or a piece, a line headed by the entry shows the natural chain unless it says otherwise.
UniProt Q96CW6: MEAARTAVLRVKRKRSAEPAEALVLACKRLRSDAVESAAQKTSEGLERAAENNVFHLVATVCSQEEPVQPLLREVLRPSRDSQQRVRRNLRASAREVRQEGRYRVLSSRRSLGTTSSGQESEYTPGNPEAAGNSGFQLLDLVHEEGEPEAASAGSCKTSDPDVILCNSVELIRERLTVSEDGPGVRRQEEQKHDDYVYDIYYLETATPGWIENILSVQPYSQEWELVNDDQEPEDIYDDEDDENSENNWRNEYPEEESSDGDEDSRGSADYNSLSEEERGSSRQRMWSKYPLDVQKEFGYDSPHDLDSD
UniProt P04920: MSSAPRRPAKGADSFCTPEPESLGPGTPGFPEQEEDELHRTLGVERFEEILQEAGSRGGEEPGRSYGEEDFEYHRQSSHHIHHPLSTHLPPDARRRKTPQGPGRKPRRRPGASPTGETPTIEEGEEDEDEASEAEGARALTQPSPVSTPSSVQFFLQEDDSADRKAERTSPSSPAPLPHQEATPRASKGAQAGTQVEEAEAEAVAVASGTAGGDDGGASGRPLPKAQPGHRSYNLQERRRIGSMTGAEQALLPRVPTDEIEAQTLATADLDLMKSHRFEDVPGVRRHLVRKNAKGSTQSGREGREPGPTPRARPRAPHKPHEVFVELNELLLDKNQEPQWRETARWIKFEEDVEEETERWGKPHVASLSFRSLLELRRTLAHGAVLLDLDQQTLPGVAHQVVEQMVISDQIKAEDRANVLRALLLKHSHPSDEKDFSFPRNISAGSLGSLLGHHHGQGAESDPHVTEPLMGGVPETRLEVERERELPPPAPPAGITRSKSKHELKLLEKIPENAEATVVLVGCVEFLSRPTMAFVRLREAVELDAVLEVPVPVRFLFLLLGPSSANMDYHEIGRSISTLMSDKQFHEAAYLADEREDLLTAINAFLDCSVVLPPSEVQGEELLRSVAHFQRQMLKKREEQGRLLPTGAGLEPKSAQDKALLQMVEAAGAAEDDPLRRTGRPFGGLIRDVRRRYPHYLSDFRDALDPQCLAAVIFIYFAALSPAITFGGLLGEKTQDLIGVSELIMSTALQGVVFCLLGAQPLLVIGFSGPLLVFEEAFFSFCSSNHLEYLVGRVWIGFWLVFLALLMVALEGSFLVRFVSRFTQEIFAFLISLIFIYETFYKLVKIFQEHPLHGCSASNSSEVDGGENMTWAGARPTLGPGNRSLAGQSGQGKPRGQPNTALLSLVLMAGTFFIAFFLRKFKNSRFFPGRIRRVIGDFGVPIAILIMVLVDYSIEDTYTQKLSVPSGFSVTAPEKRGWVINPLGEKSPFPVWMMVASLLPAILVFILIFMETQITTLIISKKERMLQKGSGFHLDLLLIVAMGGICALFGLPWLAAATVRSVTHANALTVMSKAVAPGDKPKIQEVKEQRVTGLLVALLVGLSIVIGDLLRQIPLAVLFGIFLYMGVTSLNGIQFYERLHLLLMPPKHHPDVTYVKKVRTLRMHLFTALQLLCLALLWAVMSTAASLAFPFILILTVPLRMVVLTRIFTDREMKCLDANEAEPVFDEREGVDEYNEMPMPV
UniProt Q8TB61: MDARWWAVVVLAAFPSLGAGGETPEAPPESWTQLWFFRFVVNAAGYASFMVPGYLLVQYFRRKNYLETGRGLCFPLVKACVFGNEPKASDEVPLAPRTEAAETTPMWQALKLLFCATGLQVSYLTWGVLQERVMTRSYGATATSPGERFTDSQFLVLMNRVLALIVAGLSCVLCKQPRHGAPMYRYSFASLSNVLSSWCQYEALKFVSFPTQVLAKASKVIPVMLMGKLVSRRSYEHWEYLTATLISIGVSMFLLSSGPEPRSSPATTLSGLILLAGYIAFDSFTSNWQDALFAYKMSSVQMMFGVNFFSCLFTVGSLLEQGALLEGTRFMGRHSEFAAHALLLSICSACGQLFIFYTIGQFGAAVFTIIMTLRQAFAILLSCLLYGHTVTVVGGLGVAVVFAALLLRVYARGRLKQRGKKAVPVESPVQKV
UniProt Q8N357: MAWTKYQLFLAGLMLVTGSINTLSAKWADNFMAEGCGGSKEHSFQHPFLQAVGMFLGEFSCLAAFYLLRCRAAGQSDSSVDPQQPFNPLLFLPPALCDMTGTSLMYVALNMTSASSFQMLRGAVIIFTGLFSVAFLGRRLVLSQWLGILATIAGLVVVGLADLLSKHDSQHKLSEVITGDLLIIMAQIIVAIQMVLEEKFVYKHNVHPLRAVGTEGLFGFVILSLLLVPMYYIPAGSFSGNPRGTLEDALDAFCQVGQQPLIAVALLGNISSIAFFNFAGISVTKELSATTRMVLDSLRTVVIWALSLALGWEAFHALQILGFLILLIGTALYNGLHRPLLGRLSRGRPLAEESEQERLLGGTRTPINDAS
UniProt O00400: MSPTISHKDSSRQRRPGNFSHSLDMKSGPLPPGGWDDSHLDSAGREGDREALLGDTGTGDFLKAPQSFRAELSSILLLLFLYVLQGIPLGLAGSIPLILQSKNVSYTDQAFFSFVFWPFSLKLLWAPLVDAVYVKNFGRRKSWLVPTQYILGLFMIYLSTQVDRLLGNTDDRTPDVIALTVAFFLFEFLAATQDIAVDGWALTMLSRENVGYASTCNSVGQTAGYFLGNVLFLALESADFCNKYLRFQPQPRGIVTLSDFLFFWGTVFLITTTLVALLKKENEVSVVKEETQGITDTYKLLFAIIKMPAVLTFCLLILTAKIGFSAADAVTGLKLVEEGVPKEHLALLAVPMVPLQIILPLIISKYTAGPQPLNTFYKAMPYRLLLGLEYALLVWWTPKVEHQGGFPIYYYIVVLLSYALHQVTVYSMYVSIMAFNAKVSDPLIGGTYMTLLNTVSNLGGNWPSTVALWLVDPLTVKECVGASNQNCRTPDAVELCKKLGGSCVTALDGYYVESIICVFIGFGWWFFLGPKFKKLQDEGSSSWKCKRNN
UniProt Q14BN4: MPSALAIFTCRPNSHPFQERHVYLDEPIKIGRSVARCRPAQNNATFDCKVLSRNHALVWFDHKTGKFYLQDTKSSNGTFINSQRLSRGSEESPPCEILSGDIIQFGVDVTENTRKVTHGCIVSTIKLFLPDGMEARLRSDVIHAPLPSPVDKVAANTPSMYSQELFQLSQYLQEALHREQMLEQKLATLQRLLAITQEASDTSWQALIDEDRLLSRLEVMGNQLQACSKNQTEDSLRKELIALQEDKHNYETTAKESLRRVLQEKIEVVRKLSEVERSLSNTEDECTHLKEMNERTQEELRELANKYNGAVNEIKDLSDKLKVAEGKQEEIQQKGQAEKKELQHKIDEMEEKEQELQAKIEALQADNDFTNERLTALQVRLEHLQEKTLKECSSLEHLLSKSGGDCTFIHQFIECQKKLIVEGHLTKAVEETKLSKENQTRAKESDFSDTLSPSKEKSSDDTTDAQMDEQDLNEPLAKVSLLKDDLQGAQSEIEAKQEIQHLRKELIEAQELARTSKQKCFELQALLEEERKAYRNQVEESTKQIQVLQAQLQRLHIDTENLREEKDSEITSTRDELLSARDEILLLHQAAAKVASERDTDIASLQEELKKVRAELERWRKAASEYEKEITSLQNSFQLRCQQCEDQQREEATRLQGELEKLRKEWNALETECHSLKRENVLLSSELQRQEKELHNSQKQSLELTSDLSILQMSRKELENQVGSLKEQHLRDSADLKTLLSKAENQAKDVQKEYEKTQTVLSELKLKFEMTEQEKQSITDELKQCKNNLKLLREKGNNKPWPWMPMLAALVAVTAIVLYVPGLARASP
UniProt Q6NUK1: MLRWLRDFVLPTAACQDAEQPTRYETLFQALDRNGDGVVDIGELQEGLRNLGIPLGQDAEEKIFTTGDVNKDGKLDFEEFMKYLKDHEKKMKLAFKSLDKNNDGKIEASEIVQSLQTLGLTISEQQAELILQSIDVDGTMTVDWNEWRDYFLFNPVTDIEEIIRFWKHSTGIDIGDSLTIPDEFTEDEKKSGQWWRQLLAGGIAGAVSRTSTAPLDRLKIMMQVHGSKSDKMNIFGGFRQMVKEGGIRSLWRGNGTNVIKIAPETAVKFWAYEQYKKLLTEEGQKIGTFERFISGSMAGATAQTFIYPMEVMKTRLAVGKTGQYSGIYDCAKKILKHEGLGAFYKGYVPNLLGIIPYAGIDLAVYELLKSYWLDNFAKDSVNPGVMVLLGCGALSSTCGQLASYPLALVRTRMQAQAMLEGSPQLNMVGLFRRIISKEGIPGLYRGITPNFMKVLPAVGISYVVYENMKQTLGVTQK
UniProt P12235: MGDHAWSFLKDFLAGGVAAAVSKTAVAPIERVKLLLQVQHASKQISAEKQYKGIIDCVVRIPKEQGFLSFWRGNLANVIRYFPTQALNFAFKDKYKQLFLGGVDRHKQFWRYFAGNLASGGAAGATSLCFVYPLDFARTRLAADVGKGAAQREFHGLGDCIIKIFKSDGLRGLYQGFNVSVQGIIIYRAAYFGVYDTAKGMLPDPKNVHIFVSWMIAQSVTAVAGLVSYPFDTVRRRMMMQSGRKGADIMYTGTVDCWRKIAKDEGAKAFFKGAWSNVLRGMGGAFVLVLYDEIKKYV
UniProt Q9H2H9: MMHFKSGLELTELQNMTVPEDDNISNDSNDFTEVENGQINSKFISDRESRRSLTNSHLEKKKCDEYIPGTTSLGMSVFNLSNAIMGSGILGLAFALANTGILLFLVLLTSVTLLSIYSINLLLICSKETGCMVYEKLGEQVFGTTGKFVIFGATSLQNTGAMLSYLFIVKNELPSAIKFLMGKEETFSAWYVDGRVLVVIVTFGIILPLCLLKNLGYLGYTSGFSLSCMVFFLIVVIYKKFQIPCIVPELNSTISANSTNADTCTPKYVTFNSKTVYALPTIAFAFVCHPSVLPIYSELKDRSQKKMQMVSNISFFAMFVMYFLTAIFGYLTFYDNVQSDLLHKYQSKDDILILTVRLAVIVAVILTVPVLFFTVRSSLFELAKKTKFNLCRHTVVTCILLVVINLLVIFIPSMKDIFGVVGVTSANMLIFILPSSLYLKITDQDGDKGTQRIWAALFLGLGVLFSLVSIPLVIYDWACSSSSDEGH
UniProt Q8NBW4: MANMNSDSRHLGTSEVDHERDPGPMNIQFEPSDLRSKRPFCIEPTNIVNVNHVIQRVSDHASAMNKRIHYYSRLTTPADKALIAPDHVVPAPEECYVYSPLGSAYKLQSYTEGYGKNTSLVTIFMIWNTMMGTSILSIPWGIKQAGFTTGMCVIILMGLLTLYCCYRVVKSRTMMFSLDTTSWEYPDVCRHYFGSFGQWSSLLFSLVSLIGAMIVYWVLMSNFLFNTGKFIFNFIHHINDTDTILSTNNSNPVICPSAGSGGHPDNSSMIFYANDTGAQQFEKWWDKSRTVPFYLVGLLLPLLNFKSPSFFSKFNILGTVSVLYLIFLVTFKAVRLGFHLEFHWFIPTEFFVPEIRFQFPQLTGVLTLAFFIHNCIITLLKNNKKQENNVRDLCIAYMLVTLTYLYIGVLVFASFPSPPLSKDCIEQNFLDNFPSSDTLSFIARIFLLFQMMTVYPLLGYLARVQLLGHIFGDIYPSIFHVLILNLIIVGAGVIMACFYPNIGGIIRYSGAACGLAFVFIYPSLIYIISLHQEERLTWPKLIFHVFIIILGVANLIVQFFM
UniProt P53794: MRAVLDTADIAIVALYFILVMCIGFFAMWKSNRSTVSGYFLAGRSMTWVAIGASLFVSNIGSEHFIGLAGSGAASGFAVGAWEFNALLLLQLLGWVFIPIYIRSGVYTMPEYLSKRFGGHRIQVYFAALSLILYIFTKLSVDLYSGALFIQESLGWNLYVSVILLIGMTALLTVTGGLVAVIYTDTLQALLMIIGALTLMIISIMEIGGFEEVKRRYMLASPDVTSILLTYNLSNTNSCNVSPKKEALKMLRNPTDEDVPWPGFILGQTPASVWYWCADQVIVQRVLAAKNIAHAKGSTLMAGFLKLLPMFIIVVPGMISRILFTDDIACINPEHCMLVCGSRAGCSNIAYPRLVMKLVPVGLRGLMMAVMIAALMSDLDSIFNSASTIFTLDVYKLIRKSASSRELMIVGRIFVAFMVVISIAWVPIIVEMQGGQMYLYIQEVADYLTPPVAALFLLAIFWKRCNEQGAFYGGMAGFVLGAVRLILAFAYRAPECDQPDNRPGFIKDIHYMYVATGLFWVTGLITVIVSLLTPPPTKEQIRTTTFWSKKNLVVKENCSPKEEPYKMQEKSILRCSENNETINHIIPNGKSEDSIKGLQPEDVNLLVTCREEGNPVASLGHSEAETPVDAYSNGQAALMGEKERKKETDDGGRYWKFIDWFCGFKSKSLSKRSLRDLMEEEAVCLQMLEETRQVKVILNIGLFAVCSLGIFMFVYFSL
UniProt Q70HW3: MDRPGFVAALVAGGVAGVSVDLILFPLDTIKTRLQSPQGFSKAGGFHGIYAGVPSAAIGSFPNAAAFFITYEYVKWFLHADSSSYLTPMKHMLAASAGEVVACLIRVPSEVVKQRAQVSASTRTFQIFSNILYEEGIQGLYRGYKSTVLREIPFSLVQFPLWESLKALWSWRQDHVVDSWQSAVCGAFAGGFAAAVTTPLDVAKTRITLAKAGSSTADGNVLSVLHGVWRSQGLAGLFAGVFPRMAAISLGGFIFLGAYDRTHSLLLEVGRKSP

Assays:
Experiment in all cases: log2 fold change, soluble protein after heating vs DMSO (PISA); higher = thermal stabilisation; K562 lysate, 10 uM; active = over 0.2 and 3.5 SD of the protein, either way, in both replicates (recomputed)
ibrutinib = compound: C=CC(=O)N1CCC[C@@H](n2nc(-c3ccc(Oc4ccccc4)cc3)c3c(N)ncnc32)C1 [ibrutinib]
In short: (§1)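 Dounce homogenisation of K562 pellets in PBS pH 7.4 with 1 mM MgCl2 produced a crude extract, used at 1 mg/mL protein. Exposure to 10 μM compound lasted 30 min, and aliquots were then heated for 3 min across 48°C-58°C, pooled and brought to 0.5% NP-40 at 4°C. The supernatant after 21,000xg for 90 min was quantified by TMTpro 16plex LC-MS/MS with channel sums equalised. Duplicate values are given as log-two fold change in thermal stability relative to solvent controls.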

[1] = compound: CC(=O)c1cnc2ccc(-c3cc(Cl)c(O)c(Cl)c3)nc2c1N[C@H]1CC[C@H](CN(C)C)CC1
In short: as §1

ralimetinib = compound: CC(C)(C)Cn1c(N)nc2ccc(-c3[nH]c(C(C)(C)C)nc3-c3ccc(F)cc3)nc21 [ralimetinib]
In short: as §1

[2] = compound: CC(C)(O)CC(=O)NCCn1ccc2ncnc(Nc3ccc(Oc4cccc(C(F)(F)F)c4)c(Cl)c3)c21
In short: as §1

[3] = compound: CC(C)C1=C2N=C(C=C(N2N=C1)NCC3=CC=CC=C3)NCCCCCCN
In short: as §1

[4] = compound: CC1=C(C(CC(=O)N1)C2=CC=C(C=C2)C(F)(F)F)C(=O)NC3=C(C=C4C(=C3)C=NN4)F
In short: as §1

[5] = compound: CC1=C(C2=C(C=C1)C(=O)C3=CC=CC=C3N2CCCN)C
In short: as §1

[6] = compound: CC1=C(C=C(C=C1)NC(=O)C2=CC(=CC=C2)C(C)(C)C#N)NC3=CC4=C(C=C3)N=CN(C4=O)C
In short: as §1

[7] = compound: CC1=C(C=C(C=C1)NC(=O)C2=CC(=CC=C2)N(C)C)NC(=O)C3=CC=C(C=C3)O
In short: as §1

[8] = compound: CC1=CC=C(C=C1)SC2=C3C=C(SC3=CN=C2)C(=O)N
In short: as §1

Measured: log2 fold change

SLC7A6OS (UniProt Q96CW6)
inactive: ibrutinib 0.04 | [1] -0.003 | ralimetinib 0.01 | [2] -0.024 | [3] -0.021 | [4] -0.027 | [5] 0.009 | [6] 0.036 | [7] 0.025 | [8] -0.017

SLC25A32 (UniProt Q9H2D1)
inactive: ibrutinib 0.029 | [1] 0.005 | ralimetinib 0.006 | [2] -0.017 | [3] -0.017 | [4] -0.03 | [5] -0.031 | [6] 0.048 | [7] -0.021 | [8] -0.007

SLC25A11 (UniProt Q02978)
inactive: ibrutinib 0.011 | [1] -0.02 | ralimetinib 0.036 | [2] -0.019 | [3] -0.022 | [4] 0.007 | [5] -0.028 | [6] 0.022 | [7] -0.002 | [8] 0.01

SLC4A2 (UniProt P04920)
inactive: ibrutinib 0.019 | [1] 0.024 | ralimetinib 0.009 | [2] -0.077 | [3] -0.039 | [4] -0.114 | [5] 0.016 | [6] 0.034 | [7] -0.09 | [8] 0.008

SLC5A6 (UniProt Q9Y289)
inactive: ibrutinib 0.065 | [1] -0.025 | ralimetinib 0.009 | [2] 0.006 | [3] -0.016 | [4] -0.049 | [5] -0.033 | [6] 0.022 | [7] -0.032 | [8] -0.014

SMAD2 (UniProt Q15796)
inactive: ibrutinib 0.041 | [1] -0.014 | ralimetinib 0.025 | [2] 0.012 | [3] 0.005 | [4] -0.061 | [5] -0.014 | [6] 0.054 | [7] 0.029 | [8] 0.017

SLC25A19 (UniProt Q9HC21)
inactive: ibrutinib 0.045 | [1] 0.02 | ralimetinib 0.009 | [2] 0 | [3] 0.033 | [4] 0.033 | [5] 0.039 | [6] -0.015 | [7] 0.019 | [8] 0.07

SLC35B2 (UniProt Q8TB61)
inactive: ibrutinib 0.015 | [1] 0.008 | ralimetinib 0.002 | [2] 0.023 | [3] -0.046 | [4] -0.001 | [5] -0.042 | [6] -0.012 | [7] -0.054 | [8] -0.028

SMAD4 (UniProt Q13485)
inactive: ibrutinib 0.028 | [1] 0.002 | ralimetinib 0.017 | [2] -0.037 | [3] -0.007 | [4] -0.031 | [5] 0.019 | [6] 0 | [7] -0.022 | [8] -0.068

SLC36A4 (UniProt Q6YBV0)
inactive: ibrutinib 0.109 | [1] -0.088 | ralimetinib 0.101 | [2] -0.115 | [3] -0.115 | [4] -0.044 | [5] -0.067 | [6] 0.097 | [7] 0.049 | [8] 0.058

SLC35A2 isoform 4 (UniProt P78381)
inactive: ibrutinib -0.049 | [1] 0 | ralimetinib -0.034 | [2] 0.057 | [3] -0.036 | [4] 0.068 | [5] -0.005 | [6] 0.072 | [7] 0.061 | [8] 0.047

SLC35F6 (UniProt Q8N357)
inactive: ibrutinib -0.061 | [1] -0.015 | ralimetinib 0.052 | [2] 0.032 | [3] 0.015 | [4] 0.003 | [5] -0.049 | [6] -0.068 | [7] 0.028 | [8] -0.022

SLC25A13 isoform 2 (UniProt Q9UJS0)
inactive: ibrutinib 0.017 | [1] -0.006 | ralimetinib -0.012 | [2] -0.02 | [3] -0.014 | [4] -0.006 | [5] 0.007 | [6] 0.01 | [7] 0.012 | [8] 0.035

SLC7A2 isoform 3 (UniProt P52569)
inactive: ibrutinib 0.022 | [1] -0.029 | ralimetinib 0.052 | [2] 0.032 | [3] -0.033 | [4] 0.031 | [5] -0.186 | [6] 0.049 | [7] -0.051 | [8] 0.007

SLC33A1 (UniProt O00400)
inactive: ibrutinib 0.047 | [1] -0.008 | ralimetinib 0.024 | [2] -0.066 | [3] -0.014 | [4] -0.021 | [5] 0.051 | [6] -0.007 | [7] -0.014 | [8] -0.002

SLC30A9 (UniProt Q6PML9)
inactive: ibrutinib 0.061 | [1] 0.002 | ralimetinib -0.03 | [2] 0.064 | [3] 0.021 | [4] -0.033 | [5] 0.008 | [6] 0.017 | [7] -0.213 | [8] -0.009

SLC25A14 isoform 3 (UniProt O95258)
inactive: ibrutinib -0.064 | [1] 0.016 | ralimetinib 0.017 | [2] -0.054 | [3] 0.019 | [4] -0.067 | [5] -0.06 | [6] 0.032 | [7] -0.053 | [8] 0

SLMAP isoform 3 (UniProt Q14BN4)
inactive: ibrutinib -0.029 | [1] 0 | ralimetinib 0.012 | [2] -0.03 | [3] -0.016 | [4] 0.022 | [5] -0.006 | [6] 0.006 | [7] 0.023 | [8] 0.008

SLC25A24 (UniProt Q6NUK1)
inactive: ibrutinib 0.02 | [1] -0.002 | ralimetinib -0.009 | [2] -0.03 | [3] -0.022 | [4] -0.034 | [5] -0.003 | [6] 0.015 | [7] -0.029 | [8] -0.012

SLC25A4 (UniProt P12235)
inactive: ibrutinib 0.047 | [1] 0.023 | ralimetinib 0.067 | [2] 0.021 | [3] -0.011 | [4] 0.014 | [5] 0.033 | [6] -0.024 | [7] -0.002 | [8] 0.059

SMAP2 (UniProt Q8WU79)
active: [6] -0.286
inactive: ibrutinib -0.008 | [1] -0.008 | ralimetinib -0.015 | [2] -0.01 | [3] 0.024 | [4] 0.034 | [5] 0.019 | [7] -0.015 | [8] 0.002

SLC38A1 (UniProt Q9H2H9)
inactive: ibrutinib 0.001 | [1] -0.053 | ralimetinib -0.021 | [2] -0.041 | [3] 0.037 | [4] -0.001 | [5] -0.039 | [6] 0.027 | [7] 0.018 | [8] -0.01

SLC25A51 (UniProt Q9H1U9)
inactive: ibrutinib 0.066 | [1] 0.034 | ralimetinib 0.044 | [2] -0.059 | [3] -0.005 | [4] -0.052 | [5] 0.025 | [6] 0.146 | [7] -0.047 | [8] -0.125

SLC38A9 (UniProt Q8NBW4)
inactive: ibrutinib 0.15 | [1] -0.014 | ralimetinib 0.01 | [2] -0.002 | [3] 0.028 | [4] 0.043 | [5] 0.034 | [6] -0.012 | [7] -0.011 | [8] -0.038

SMAP (UniProt O00193)
inactive: ibrutinib 0 | [1] 0.025 | ralimetinib 0.014 | [2] -0.028 | [3] -0.033 | [4] -0.058 | [5] -0.011 | [6] -0.086 | [7] -0.017 | [8] -0.034

Pulled one by one from above (two):
SLC38A9 (UniProt Q8NBW4)
inactive: ibrutinib 0.15 | [1] -0.014 | ralimetinib 0.01 | [2] -0.002 | [3] 0.028 | [4] 0.043 | [5] 0.034 | [6] -0.012 | [7] -0.011 | [8] -0.038

SMAP2 (UniProt Q8WU79)
active: [6] -0.286
inactive: ibrutinib -0.008 | [1] -0.008 | ralimetinib -0.015 | [2] -0.01 | [3] 0.024 | [4] 0.034 | [5] 0.019 | [7] -0.015 | [8] 0.002

Continuation:

SLC5A3 (UniProt P53794)
inactive: ibrutinib -0.047 | [1] -0.023 | ralimetinib 0 | [2] -0.096 | [3] 0.056 | [4] -0.027 | [5] -0.012 | [6] 0.038 | [7] -0.04 | [8] -0.021

SLC7A1 (UniProt P30825)
inactive: ibrutinib 0.037 | [1] -0.002 | ralimetinib 0.032 | [2] 0.006 | [3] -0.033 | [4] -0.003 | [5] 0.029 | [6] -0.053 | [7] -0.007 | [8] -0.031

SLC39A3 (UniProt Q9BRY0)
inactive: ibrutinib 0.005 | [1] 0.009 | ralimetinib 0.178 | [2] 0.041 | [3] -0.045 | [4] 0.063 | [5] 0.009 | [6] 0.085 | [7] 0.008 | [8] 0.018

SLC25A26 (UniProt Q70HW3)
inactive: ibrutinib 0.084 | [1] 0.084 | ralimetinib -0.107 | [2] -0.038 | [3] -0.013 | [4] -0.041 | [5] 0.153 | [6] 0.036 | [7] -0.022 | [8] -0.153
